The record followed here is PubChem BioAssay AID2685 (National Center for Advancing Translational Sciences (NCATS), 2010).

The nature of this experiment: qHTS Assay for Lipid Storage Modulators in Drosophila S3 Cells.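 For cell number change: cells counted by Cell Tracker Red CMTPX staining in the red channel.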 To be noted: BODIPY lipid droplet fluorescence, 18-24 h; for cell number change: measured here: cell count max response, cells fed with added oleic acid. Put shortly: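 Drosophila S3 cells got compounds at several concentrations plus oleic acid (400 uM solution). Laser-scanning cytometry with 488 nm excitation read lipid droplets at 500-530 nm and cells at 575-640 nm. Percent activity was relative to 20 uM Triacsin C.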
For orientation: qHTS replaces the single test concentration by a dilution series.

Where [1] appears, read: measured here: cell number channel AC50, cells fed with added oleic acid.
Where [2] appears, read: measured here: lipid fluorescence (Fed channel) AC50, cells fed with added oleic acid.

The other results are listed elsewhere or left out. Shown are side measurements of this screen, not its main read-out; they come without a call. Compounds called inactive in the main read-out are mostly missing here. The note in brackets gives the kind of curve behind each potency; many fits are weak.

Consider `COc1ccc(Cl)cc1NC(=O)C1Cc2cc(S(=O)(=O)N3CCCC3)ccc2N1C(C)=O` (centres undefined), for which the cell number change was -34.3%. The AC50 under setting [1] was 29.1 µM [falling, single point].

For the compound `Cc1ccccc1Nc1nc(N)nc(CSCC(=O)Nc2cccc(Br)c2)n1`, the cell number change was 1.88%. Besides, under setting [2], the AC50 was 0.116 µM [rising, full curve].

As for `COc1ccc(S(=O)(=O)N2CCOC2CNC(=O)C(=O)NCCc2ccccc2)cc1OC` (centres undefined), the cell number change stood at 16.7%. Moreover, the AC50 under setting [2] is 25.9 µM [rising, single point].

`O=C(CSc1nnc2c(n1)[nH]c1ccccc12)NCc1ccccc1F`: the cell number change was 20.4%. For the same compound, under setting [2], the concentration at half-maximal activity (AC50) was 0.651 µM [falling, full curve].

Turning to `O=C1CCN(Cc2ccc(O)cc2)CCN1[C@H](CO)c1ccccc1`, the cell number change stood at 11.4%. For the same compound, under setting [1], the AC50 is 6.51 µM [rising, single point]. Besides, under setting [2], the AC50 was 29.1 µM [rising, single point].

As to `CC(NC(=O)c1ccco1)C(=O)OC(C)C(=O)NCc1ccccc1` (centres undefined), the cell number change is -74.6%.

With `COCCN(CCOC)C(=O)c1ccc(CSc2nc3ccccc3s2)cc1`, the cell number change was -9.06%.

On to `COc1ccccc1OCc1nnc(SCC(=O)N2CCCCC2)n1-c1ccccc1`, for which the cell number change turned out to be 1.26%.

As to `O=C(NC1CCCCCC1)C1CCN(S(=O)(=O)c2cccc3cccnc23)CC1`, the AC50 under setting [2] was 0.206 µM [rising, partial curve, poor fit].

As for `CCc1nnc(NC(=O)c2cc(S(=O)(=O)N3CCN(c4ccccc4)CC3)ccc2Cl)s1`, the cell number change was -24.3%.

Take `COCC1CCCN(C(=O)c2ccc3oc(CCCc4ccccc4)nc3c2)C1` (centres undefined): the concentration at half-maximal activity (AC50) under setting [2] is 14.6 µM [falling, partial curve].

With `CCCc1nc([N+](=O)[O-])c(S(=O)(=O)c2ccccc2)n1CC(C)C`, the cell number change is 8.34%. Also, the AC50 under setting [2] was 11.6 µM [falling, partial curve].

For the compound `CC(NC(=O)C12CC3CC(C1)CC(n1cncn1)(C3)C2)C12CC3CC(CC(C3)C1)C2` (centres undefined), the cell number change is -40.1%. Also, the half-maximal activity concentration (AC50) under setting [1] was 29.1 µM [falling, single point]. Besides, the AC50 under setting [2] is 0.517 µM [falling, full curve, poor fit].

On to `N#Cc1c(NC(=O)c2cnccn2)sc2c1CCCC2`, for which the cell number change was determined as 11.5%. Further, under setting [2], the AC50 is 6.51 µM [rising, partial curve, poor fit].

As for `COc1ccc([N+](=O)[O-])cc1-c1nc2ccccc2nc1-c1ccccc1`, the cell number change worked out at 13.1%. Moreover, the AC50 under setting [1] was 0.082 µM [rising, full curve, poor fit].

Turning to `NC(=O)c1ccc(N2CCN(S(=O)(=O)c3ccccc3)CC2)c([N+](=O)[O-])c1`, the cell number change is -22.4%.

As for `CCn1c(SCC(=O)Nc2nc3ccc(C)cc3s2)nc2c(c1=O)SC(C)C2` (centres undefined), the cell number change was -3.01%. The concentration at half-maximal activity (AC50) under setting [2] is 23.1 µM [falling, single point].

For the compound `CCOC(=O)c1c(-c2ccccc2)csc1NC(=O)/C(C#N)=C/c1ccc(O)c(OC)c1`, the cell number change was -10.6%. Further, the concentration at half-maximal activity (AC50) under setting [2] was 29.1 µM [falling, single point].

As to `C=CCOc1ccc(Br)cc1CNCCCN1CCOCC1`, the cell number change was -20.9%. Moreover, the AC50 under setting [2] was 23.1 µM [falling, single point].

Consider `O=C(COc1ccc(Cl)cc1)Nc1cccc(S(=O)(=O)NCc2ccco2)c1`, for which the cell number change is -15.9%. For the same compound, under setting [2], the AC50 was 0.82 µM [falling, full curve].

Regarding `O=C(O)COc1ccccc1-c1nc(-c2ccccc2)c(-c2ccccc2)[nH]1`, the cell number change amounted to 3.41%. In addition, under setting [2], the AC50 was 29.1 µM [rising, single point].

On to `COCCNC(=S)N1CCC(NC(=O)c2ccco2)CC1`, for which the cell number change was determined as 2.98%. The half-maximal activity concentration (AC50) under setting [2] is 3.66 µM [falling, single point].

On to `COc1ccc(C(=O)/C(C#N)=N/Nc2ccccc2[N+](=O)[O-])cc1`, for which the cell number change is 9.2%. In addition, the concentration at half-maximal activity (AC50) under setting [2] is 29.1 µM [falling, single point].

As to `COc1ccc(-c2csc(N3C(=O)C4C5c6ccccc6C(c6ccccc65)[C@@H]4C3=O)n2)cc1` (some centres undefined), the AC50 runs as follows: under setting [1], 0.731 µM [rising, partial curve, poor fit]; under setting [2], 0.731 µM [rising, full curve].

`CC(C)(C)n1[nH]c2c3c(ccc2c1=O)C(=O)c1ccccc1C3=O`: the cell number change was 11%. Also, the AC50 under setting [1] was 2.91 µM [falling, single point].

Take `O=C(c1cc(S(=O)(=O)N2CCOCC2)c(Cl)cc1Cl)N1CCCCC1CO` (centres undefined): the cell number change was -9.29%.

For `COc1ccc(C)cc1N(C(=O)c1ccccc1F)c1nc2ccccc2s1`, the cell number change was -3.13%. Under setting [2], the concentration at half-maximal activity (AC50) was 20.6 µM [rising, single point].

Take `Nc1nonc1-n1nnc(C(=O)N/N=C/c2ccc(OCc3ccccc3F)cc2)c1CNc1ccccc1`: the cell number change is -6.18%.

`Cc1n[nH]c(C)c1C(=O)CC1(O)C(=O)N(Cc2ccccc2)c2ccc(Br)cc21` (centres undefined): the AC50 is 0.184 µM [rising, full curve, poor fit] under setting [1] and 0.206 µM [rising, full curve, poor fit] under setting [2].

Regarding `CCOC(=O)C(CC)Sc1nnc2c3cc(C)ccc3n(C)c2n1` (centres undefined), the cell number change amounted to 33.5%. Further, the half-maximal activity concentration (AC50) under setting [1] was 4.61 µM [rising, full curve]. For the same compound, under setting [2], the AC50 is 29.1 µM [falling, single point].

As to `COc1ccc(OCC(O)CNCCOc2ccccc2OC)c(C(C)(C)C)c1` (centres undefined), the cell number change was -61%. For the same compound, under setting [1], the half-maximal activity concentration (AC50) is 18.4 µM [falling, single point]. Also, the AC50 under setting [2] is 29.1 µM [falling, single point].

As for `CCN(CC)S(=O)(=O)c1ccc(C(=O)Nc2ccc3c(c2)OCCO3)cc1`, the cell number change was -14.7%.

As for `COC(=O)C1SCC2C(=O)N(Cc3ccc(Cl)c(Cl)c3)CC(=O)N21` (centres undefined), the cell number change was found to be 39.1%. The AC50 under setting [1] is 29.1 µM [rising, single point]. For the same compound, the concentration at half-maximal activity (AC50) under setting [2] is 0.651 µM [falling, partial curve].

In the case of `O=C(NC1CCCCC1)c1cc(-c2cccc(Cl)c2)on1`, the cell number change was 10%.

For `C=CCn1c(=O)c2c(C)c(C)sc2n2c(Nc3ccccc3)nnc12`, the cell number change is -12.5%. The AC50 under setting [1] is 0.00461 µM [rising, full curve, poor fit].

As to `CCCCOc1ccc(N2C(=O)CC(NCCc3ccc(S(N)(=O)=O)cc3)C2=O)cc1` (centres undefined), under setting [2], the half-maximal activity concentration (AC50) was 1.64 µM [falling, partial curve].

For `CCOC(=O)Cn1c(=O)c2c(nc(N3CCCCC3)n2C)n(C)c1=O`, the cell number change was 6.6%. Besides, under setting [2], the AC50 is 2.91 µM [rising, full curve, poor fit].

Regarding `Cc1ccc(S(=O)(=O)NNC2CC(=O)N(c3ccc(Br)cc3)C2=O)cc1` (centres undefined), the cell number change stood at 56.8%. In addition, under setting [1], the concentration at half-maximal activity (AC50) is 29.1 µM [rising, partial curve, poor fit]. The half-maximal activity concentration (AC50) under setting [2] is 29.1 µM [rising, single point].

Regarding `O=[N+]([O-])c1ccc(/C=N/Nc2ccnc3cc(Cl)ccc23)o1`, the cell number change stood at 37.2%.

As to `COc1ccc(N2CCN(CCCNC(=O)C(=O)c3c[nH]c4ccccc34)CC2)cc1`, the cell number change is -12.5%.

For `Cc1ccc(S(=O)(=O)N2CCN(Cc3nc4sc5c(c4c(=O)[nH]3)CCCC5)CC2)cc1`, the cell number change is -3.8%. The AC50 under setting [2] was 0.82 µM [falling, full curve].

Consider `Cc1ccc(-c2nc3ccc(Cl)cc3n2OC(C)C(=O)O)cc1` (centres undefined), for which the cell number change amounted to 12.4%.

Take `N=c1c(S(=O)(=O)c2ccccc2)cc2c(=O)n3ccccc3nc2n1Cc1ccco1`: the cell number change is -25.2%. Under setting [2], the concentration at half-maximal activity (AC50) is 5.17 µM [rising, single point].

Take `C/C(=N\NC(=O)c1cccc(F)c1)c1ccc(NC(=O)Cc2ccccc2)cc1`: the cell number change stood at 21.1%.

Take `CCOC(=O)c1sc(NC(=O)CN2CCN(c3ccc(OC)cc3)CC2)nc1C`: the cell number change was -26.4%. Under setting [1], the AC50 is 0.184 µM [falling, full curve, poor fit]. Further, the half-maximal activity concentration (AC50) under setting [2] is 29.1 µM [falling, single point].

In the case of `O=C(Cc1nnc(NC(=O)c2cccc([N+](=O)[O-])c2)s1)NCc1ccccc1`, the cell number change came to 14.1%. Also, the AC50 under setting [2] was 29.1 µM [rising, single point].

On to `Cc1ccc(N(CC(O)CN2CCOCC2)S(=O)(=O)c2ccc3ccccc3c2)cc1` (centres undefined), for which the cell number change is -18.1%. For the same compound, the AC50 under setting [1] is 0.092 µM [falling, full curve, poor fit].

As to `CC(=O)c1cc(CN2CCC(C(=O)Nc3cccc(-c4cscn4)c3)CC2)cs1`, the cell number change stood at 2.79%.

As to `O=C1CCCC(=O)N1c1ccc(N2CCOCC2)c([N+](=O)[O-])c1`, the cell number change came to 8.35%. In addition, the AC50 under setting [1] is 6.51 µM [falling, single point]. Moreover, under setting [2], the concentration at half-maximal activity (AC50) was 4.11 µM [falling, single point].

As for `Cc1cc(C)c(CN2CCN(C(=O)Cn3ccc(NC(=O)OCc4ccccc4)nc3=O)CC2)c(C)c1`, the cell number change was -8.6%. Also, the AC50 under setting [1] was 1.16 µM [falling, single point].

Regarding `Cc1cc(Br)c(NC(=O)CN(C)CCOc2ccccc2)c(Br)c1`, the cell number change came out at 5.14%. Under setting [2], the half-maximal activity concentration (AC50) was 0.146 µM [falling, single point].

`CCc1c(C)sc(NC(=O)C2CC2c2ccccc2)c1C(N)=O` (centres undefined): the concentration at half-maximal activity (AC50) under setting [2] is 2.06 µM [rising, partial curve].

As for `Cc1ccccc1-c1cc(C(=O)O)n(CC2CC(c3cccnc3)=NO2)n1` (centres undefined), the cell number change is -6.44%. In addition, the AC50 under setting [2] was 25.9 µM [rising, partial curve, poor fit].

Regarding `COc1cccc(-c2nnc(SCC(=O)NCc3ccc4c(c3)OCO4)n2Cc2ccco2)c1`, the cell number change turned out to be 115%. The half-maximal activity concentration (AC50) under setting [1] is 14.6 µM [rising, partial curve]. Besides, under setting [2], the half-maximal activity concentration (AC50) was 2.91 µM [rising, partial curve].

Regarding `O=S(=O)(Cc1ccccc1)N1CCc2ccccc21`, the cell number change is -11.2%. Further, the AC50 under setting [2] is 4.11 µM [falling, single point].

For `Nc1cc(C(=O)OCC(=O)N2CCC(Cc3ccccc3)CC2)ccc1Cl`, the cell number change is -3.11%.

Turning to `COc1cc2cc(C)c3nnc(SCC(N)=O)n3c2cc1OC`, the cell number change is -15%. Moreover, the AC50 under setting [2] was 9.2 µM [rising, partial curve].

Consider `C=CCn1cc(C(=O)NCCCN(CC)CC)c(=O)c2cc(S(=O)(=O)N3CCC(C)CC3)ccc21`, for which the cell number change was found to be 13%. The AC50 under setting [2] was 29.1 µM [rising, single point].

As to `O=C(COC(=O)c1ccccc1NC(=O)c1ccco1)Nc1ccc2c(c1)OC(F)(F)O2`, the cell number change was -2.01%.

Take `COc1ccccc1N(C)S(=O)(=O)c1ccc(C(=O)OCC(=O)N(C(C)C)C(C)C)cc1`: the cell number change was determined as 143%. In addition, the AC50 under setting [1] was 16.4 µM [rising, partial curve].

What is called AC50 is the concentration giving half of the maximal activity seen. Read a low AC50 as greater potency.
